For one molecule, binding results are on record in publication PMC11647625.

These are yes or no findings as the source states them, for the method shown. Binding seen in cells or lysates may run through a third protein. For some assays here: Binding calls can cover weak binding; strength is not graded here.

In experiment [1] the target is glutathione S-transferase (GST) fused with the SH2 domain of WT 3BP2. As to the kind of experiment: pull-down; 20 ug GST fusion protein bound to GSH beads incubated with precleared BMDC lysates (without or with curdlan stimulation for 30 min) for 2 h at 4 °C; washed four times with lysis buffer (50 mM Tris-HCl pH 7.4, 150 mM NaCl, 1% Triton-X 100); immunoblotting; only the target purified. For orientation: In western blotting, separated proteins are transferred to a membrane and probed.

Experiment [2] deals with GST fused with the SH2 domain of the R486K mutant of 3BP2. The description is as above.

B1: hematopoietic cell-specific Lyn substrate 1 (protein, UniProt P49710 1-486)
chain: MWKSVVGHDVSVSVETQGDDWDTDPDFVNDISEKEQRWGAKTIEGSGRTEHINIHQLRNKVSEEHDILKKKELESGPKASHGYGGRFGVERDRMDKSAVGHEYVADVEKHSSQTDAARGFGGKYGVERDRADKSAVGFDYKGEVEKHASQKDYSHGFGGRYGVEKDKRDKAALGYDYKGETEKHESQRDYAKGFGGQYGIQKDRVDKSAVGFNEMEAPTTAYKKTTPIEAASSGARGLKAKFESLAEEKRKREEEEKAQQMARQQQERKAVVKMSREVQQPSMPVEEPAAPAQLPKKISSEVWPPAESHLPPESQPVRSRREYPVPSLPTRQSPLQNHLEDNEEPPALPPRTPEGLQVVEEPVYEAAPELEPEPEPDYEPEPETEPDYEDVGELDRQDEDAEGDYEDVLEPEDTPSLSYQAGPSAGAGGAGISAIALYDYQGEGSDELSFDPDDIITDIEMVDEGWWRGQCRGHFGLFPANYVKLL
In the case of B1, the results for the binding result in experiment [1] and in experiment [2] were “binds” and “no binding”, respectively.
